Measurements published in publication PMC4019850.
No constants are given. Whether binding was seen depends on the method and setting. Binding seen in cells or lysates may run through a third protein. Some binding calls cover weakened binding; strength is not graded here. For part of these data: Sequences can lack the tags named with a protein.

Amino acid sequences for entries named in this document (tags omitted).
UniProt P67775: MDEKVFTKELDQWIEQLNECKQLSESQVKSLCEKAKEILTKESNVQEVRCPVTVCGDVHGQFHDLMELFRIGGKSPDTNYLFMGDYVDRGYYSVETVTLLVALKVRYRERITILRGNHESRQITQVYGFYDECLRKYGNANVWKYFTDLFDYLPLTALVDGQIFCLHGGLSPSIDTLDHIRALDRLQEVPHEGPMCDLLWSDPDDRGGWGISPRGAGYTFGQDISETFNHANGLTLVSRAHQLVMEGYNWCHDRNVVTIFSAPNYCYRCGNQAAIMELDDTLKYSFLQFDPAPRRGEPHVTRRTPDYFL
UniProt P63167: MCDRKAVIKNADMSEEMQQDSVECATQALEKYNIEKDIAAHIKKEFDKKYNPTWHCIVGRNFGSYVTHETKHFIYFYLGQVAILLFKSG
UniProt Q14160: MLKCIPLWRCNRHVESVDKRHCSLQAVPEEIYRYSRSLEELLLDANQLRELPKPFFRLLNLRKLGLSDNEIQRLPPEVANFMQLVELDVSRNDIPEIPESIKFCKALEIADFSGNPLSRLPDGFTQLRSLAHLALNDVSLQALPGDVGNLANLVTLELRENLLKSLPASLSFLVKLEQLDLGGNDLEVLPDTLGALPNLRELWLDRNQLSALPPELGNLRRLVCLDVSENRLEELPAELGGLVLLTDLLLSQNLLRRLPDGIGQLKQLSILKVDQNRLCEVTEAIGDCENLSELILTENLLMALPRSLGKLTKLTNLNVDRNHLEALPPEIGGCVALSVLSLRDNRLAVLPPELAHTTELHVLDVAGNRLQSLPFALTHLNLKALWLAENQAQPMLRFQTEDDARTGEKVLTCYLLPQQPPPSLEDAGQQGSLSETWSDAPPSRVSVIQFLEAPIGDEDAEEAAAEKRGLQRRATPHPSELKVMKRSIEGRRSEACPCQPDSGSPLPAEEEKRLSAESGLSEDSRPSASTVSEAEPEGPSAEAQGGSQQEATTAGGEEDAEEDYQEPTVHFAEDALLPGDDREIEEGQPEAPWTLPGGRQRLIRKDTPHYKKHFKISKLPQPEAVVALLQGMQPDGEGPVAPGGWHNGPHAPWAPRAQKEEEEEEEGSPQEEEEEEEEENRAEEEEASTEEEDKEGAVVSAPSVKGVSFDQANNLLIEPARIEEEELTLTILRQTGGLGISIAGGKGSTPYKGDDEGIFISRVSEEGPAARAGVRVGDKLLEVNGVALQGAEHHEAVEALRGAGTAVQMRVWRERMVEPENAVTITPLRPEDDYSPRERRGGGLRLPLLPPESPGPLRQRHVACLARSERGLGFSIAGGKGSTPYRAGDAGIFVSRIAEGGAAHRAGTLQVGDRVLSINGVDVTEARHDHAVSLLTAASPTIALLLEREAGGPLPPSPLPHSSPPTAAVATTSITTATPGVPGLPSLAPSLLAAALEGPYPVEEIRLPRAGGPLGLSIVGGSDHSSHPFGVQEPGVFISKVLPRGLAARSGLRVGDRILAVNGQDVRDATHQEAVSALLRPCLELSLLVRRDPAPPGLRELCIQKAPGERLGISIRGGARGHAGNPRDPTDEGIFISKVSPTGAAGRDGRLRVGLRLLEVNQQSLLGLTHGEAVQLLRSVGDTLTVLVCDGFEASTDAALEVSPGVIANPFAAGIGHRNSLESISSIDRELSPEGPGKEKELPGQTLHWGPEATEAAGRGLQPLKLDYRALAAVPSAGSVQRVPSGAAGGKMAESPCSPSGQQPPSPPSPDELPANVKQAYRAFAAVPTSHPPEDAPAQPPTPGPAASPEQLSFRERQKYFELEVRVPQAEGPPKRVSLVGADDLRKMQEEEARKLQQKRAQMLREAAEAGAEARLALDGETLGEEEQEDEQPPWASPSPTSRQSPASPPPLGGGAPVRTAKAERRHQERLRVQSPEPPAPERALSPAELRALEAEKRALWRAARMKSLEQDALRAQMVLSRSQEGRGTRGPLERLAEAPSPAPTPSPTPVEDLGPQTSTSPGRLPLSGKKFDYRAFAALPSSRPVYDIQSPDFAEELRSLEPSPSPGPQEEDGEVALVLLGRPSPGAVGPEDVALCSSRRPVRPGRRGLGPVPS

Legend:
[1] = target: T1, Flag-PTPN21 (human) (UniProt Q16825); assay: co-IP; HeLa transfected with the Flag-tagged phosphatase (with HA-DLC1 where named), serum and amino acids starved for 1 h or left untreated; immunoprecipitation with anti-Flag, Western blot
T1 sequence: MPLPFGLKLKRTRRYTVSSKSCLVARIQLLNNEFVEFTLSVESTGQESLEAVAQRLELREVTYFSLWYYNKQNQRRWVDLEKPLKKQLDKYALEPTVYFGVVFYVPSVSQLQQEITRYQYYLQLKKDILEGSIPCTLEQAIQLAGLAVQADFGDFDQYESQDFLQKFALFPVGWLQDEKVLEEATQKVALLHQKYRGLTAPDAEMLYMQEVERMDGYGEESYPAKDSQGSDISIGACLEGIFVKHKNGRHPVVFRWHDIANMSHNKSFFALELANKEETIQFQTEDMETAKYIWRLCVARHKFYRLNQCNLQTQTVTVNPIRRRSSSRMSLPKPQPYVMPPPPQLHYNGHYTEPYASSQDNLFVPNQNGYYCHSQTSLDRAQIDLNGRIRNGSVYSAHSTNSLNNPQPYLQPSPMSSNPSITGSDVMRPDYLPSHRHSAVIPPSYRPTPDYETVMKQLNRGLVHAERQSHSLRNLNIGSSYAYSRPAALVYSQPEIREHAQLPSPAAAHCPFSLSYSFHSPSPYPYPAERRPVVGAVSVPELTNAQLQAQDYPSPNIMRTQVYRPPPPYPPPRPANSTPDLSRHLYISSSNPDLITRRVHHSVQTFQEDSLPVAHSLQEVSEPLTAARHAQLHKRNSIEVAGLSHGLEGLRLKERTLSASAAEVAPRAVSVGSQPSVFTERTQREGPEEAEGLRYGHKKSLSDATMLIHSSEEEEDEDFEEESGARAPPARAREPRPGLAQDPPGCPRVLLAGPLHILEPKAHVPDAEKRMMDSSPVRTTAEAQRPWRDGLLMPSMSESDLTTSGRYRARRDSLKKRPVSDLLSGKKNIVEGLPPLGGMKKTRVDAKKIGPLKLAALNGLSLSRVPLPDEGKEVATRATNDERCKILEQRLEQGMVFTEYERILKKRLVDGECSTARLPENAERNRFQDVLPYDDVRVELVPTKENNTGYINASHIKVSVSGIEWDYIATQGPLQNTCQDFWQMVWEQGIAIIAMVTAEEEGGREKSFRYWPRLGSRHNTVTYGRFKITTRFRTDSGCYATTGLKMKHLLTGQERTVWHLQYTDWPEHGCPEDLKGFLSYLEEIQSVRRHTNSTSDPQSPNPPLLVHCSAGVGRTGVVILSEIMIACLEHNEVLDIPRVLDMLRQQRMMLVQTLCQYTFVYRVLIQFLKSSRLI

[2] = target: Flag-PPP2CA (human) (UniProt P67775); assay: as above
[3] = target: T2, Flag-DUSP26 (human) (UniProt Q9BV47); assay: co-IP; H1299 transfected with HA-SCRIB, Flag-DUSP26 or both; immunoprecipitation with anti-Flag or with anti-HA; detection with anti-SCRIB or anti-DUSP26
T2 sequence: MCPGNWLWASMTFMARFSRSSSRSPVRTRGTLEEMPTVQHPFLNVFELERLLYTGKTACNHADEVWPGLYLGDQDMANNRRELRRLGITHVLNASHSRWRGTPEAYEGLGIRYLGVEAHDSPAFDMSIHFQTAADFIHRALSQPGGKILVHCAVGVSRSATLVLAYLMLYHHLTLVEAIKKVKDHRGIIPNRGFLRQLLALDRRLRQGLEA

| Substance | binding [1] | binding [2] | binding [3] |
| --- | --- | --- | --- |
| HA-DLC1 (from UniProt P63167 1-89) | binds | binds |  |
| HA-SCRIB (from UniProt Q14160 1-1655) |  |  | binds |
